# According to the supplement of paper PMC8728848:
# The other results are listed elsewhere or left out.
# What was measured:
# Experiment in all cases: glycan array binding signal (z-score within array); higher = stronger binding
# Conditions in all cases: glycan notation: IUPAC condensed, linker removed
# [1] = target: GlcNAc(b1-3)Gal(b1-4)GlcNAc(b1-3)Gal(b1-4)GlcNAc(b1-3)Gal(b1-4)GlcNAc(b1-3)Gal(b1-4)GlcNAc(b1-2)Man(a1-3)[GlcNAc(b1-3)Gal(b1-4)GlcNAc(b1-3)Gal(b1-4)GlcNAc(b1-3)Gal(b1-4)GlcNAc(b1-3)Gal(b1-4)GlcNAc(b1-2)Man(a1-6)]Man(b1-4)GlcNAc(b1-4)GlcNAc
# Method in brief: (§1)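 From the Consortium for Functional Glycomics database, 3228 arrays were curated, keeping only those whose protein sequence was available. Binding is given as a within-array Z-score averaged across arrays sharing a protein sequence and across linkers. Negative Z-scores can be read as non-binding.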
# [2] = target: GlcNAc(b1-3)Gal(b1-4)GlcNAc(b1-3)Gal(b1-4)GlcNAc(b1-3)Gal(b1-4)GlcNAc(b1-3)Gal(b1-4)GlcNAc(b1-2)Man(a1-3)[GlcNAc(b1-3)Gal(b1-4)GlcNAc(b1-3)Gal(b1-4)GlcNAc(b1-3)Gal(b1-4)GlcNAc(b1-3)Gal(b1-4)GlcNAc(b1-2)Man(a1-6)]Man(b1-4)GlcNAc(b1-4)[Fuc(a1-6)]GlcNAc
# Method in brief: as §1
# [3] = target: GlcNAc(b1-3)Gal(b1-4)GlcNAc(b1-3)Gal(b1-4)GlcNAc(b1-3)Gal(b1-4)GlcNAc(b1-3)Gal(b1-4)GlcNAc(b1-2)[GlcNAc(b1-3)Gal(b1-4)GlcNAc(b1-3)Gal(b1-4)GlcNAc(b1-3)Gal(b1-4)GlcNAc(b1-3)Gal(b1-4)GlcNAc(b1-6)]Man(a1-6)[GlcNAc(b1-3)Gal(b1-4)GlcNAc(b1-3)Gal(b1-4)GlcNAc(b1-3)Gal(b1-4)GlcNAc(b1-3)Gal(b1-4)GlcNAc(b1-2)Man(a1-3)]Man(b1-4)GlcNAc(b1-4)[Fuc(a1-6)]GlcNAc
# Method in brief: as §1
# [4] = target: GlcNAc(b1-3)Gal(b1-4)GlcNAc(b1-3)Gal(b1-4)GlcNAc(b1-3)GalNAc
# Method in brief: as §1
# [5] = target: GlcNAc(b1-3)Gal(b1-4)GlcNAc(b1-3)GalNAc
# Method in brief: as §1
# [6] = target: GlcNAc(b1-3)Gal(b1-4)GlcNAc(b1-3)[GlcNAc(b1-3)Gal(b1-4)GlcNAc(b1-3)]GalNAc
# Method in brief: as §1
# [7] = target: GlcNAc(b1-3)Gal(b1-4)GlcNAc(b1-6)[Gal(b1-3)]GalNAc
# Method in brief: as §1
# [8] = target: GlcNAc(b1-3)Gal(b1-4)GlcNAc(b1-6)[GlcNAc(b1-3)Gal(b1-3)]GalNAc
# Method in brief: as §1
# [9] = target: GlcNAc(b1-3)Gal(b1-4)GlcNAc(b1-6)[GlcNAc(b1-3)]Gal(b1-4)GlcNAc
# Method in brief: as §1
# [10] = target: GlcNAc(b1-3)GalNAc
# Method in brief: as §1
# [11] = target: GlcNAc(b1-3)Man
# Method in brief: as §1
# [12] = target: GlcNAc(b1-3)[GlcNAc(b1-4)][GlcNAc(b1-6)]GlcNAc
# Method in brief: as §1
# [13] = target: GlcNAc(b1-3)[GlcNAc(b1-6)]Gal(b1-4)GlcNAc
# Method in brief: as §1
# [14] = target: GlcNAc(b1-3)[GlcNAc(b1-6)]GalNAc
# Method in brief: as §1
# [15] = target: GlcNAc(b1-4)Gal(b1-4)GlcNAc
# Method in brief: as §1
# [16] = target: GlcNAc(b1-4)GlcNAc
# Method in brief: as §1
# [17] = target: GlcNAc(b1-4)GlcNAc(b1-4)GlcNAc
# Method in brief: as §1
# [18] = target: GlcNAc(b1-4)GlcNAc(b1-4)GlcNAc(b1-4)GlcNAc(b1-4)GlcNAc
# Method in brief: as §1
# [19] = target: GlcNAc(b1-4)GlcNAc(b1-4)GlcNAc(b1-4)GlcNAc(b1-4)GlcNAc(b1-4)GlcNAc
# Method in brief: as §1
# [20] = target: GlcNAc(b1-4)[GlcNAc(b1-6)]GalNAc
# Method in brief: as §1
# [21] = target: GlcNAc(b1-6)Gal(b1-4)GlcNAc
# Method in brief: as §1
# [22] = target: GlcNAc(b1-6)GalNAc
# Method in brief: as §1
# [23] = target: GlcNAc3Prop(b1-4)GlcNAc
# Method in brief: as §1
# [24] = target: GlcNAc6S(b1-3)Gal(b1-4)GlcNAc
# Method in brief: as §1
# [25] = target: Kdn(a2-3)Gal(b1-3)GalNAc
# Method in brief: as §1
# [26] = target: Kdn(a2-3)Gal(b1-3)GlcNAc
# Method in brief: as §1
# [27] = target: Kdn(a2-3)Gal(b1-4)Glc
# Method in brief: as §1
# [28] = target: Kdn(a2-3)Gal(b1-4)GlcNAc
# Method in brief: as §1
# [29] = target: Kdn(a2-3)Gal(b1-4)[Fuc(a1-3)]GlcNAc
# Method in brief: as §1
# [30] = target: Kdn(a2-6)Gal(b1-4)GlcNAc
# Method in brief: as §1
# [31] = target: Man(a1-2)Man(a1-2)Man(a1-3)Man
# Method in brief: as §1
# [32] = target: Man(a1-2)Man(a1-2)Man(a1-6)[Man(a1-3)]Man
# Method in brief: as §1
# [33] = target: Man(a1-2)Man(a1-3)Man
# Method in brief: as §1
# [34] = target: Man(a1-2)Man(a1-3)[Man(a1-2)Man(a1-6)]Man
# Method in brief: as §1
# [35] = target: Man(a1-2)Man(a1-3)[Man(a1-2)Man(a1-6)]Man(a1-6)[Man(a1-2)Man(a1-2)Man(a1-3)]Man
# Method in brief: as §1
# [36] = target: Man(a1-2)Man(a1-3)[Man(a1-2)Man(a1-6)]Man(a1-6)[Man(a1-2)Man(a1-2)Man(a1-3)]Man(b1-4)GlcNAc(b1-4)GlcNAc
# Method in brief: as §1
# [37] = target: Man(a1-2)Man(a1-3)[Man(a1-6)]Man(a1-6)[Man(a1-2)Man(a1-3)]Man(b1-4)GlcNAc(b1-4)GlcNAc
# Method in brief: as §1
# [38] = target: Man(a1-2)Man(a1-6)[Man(a1-3)]Man(a1-6)[Man(a1-2)Man(a1-2)Man(a1-3)]Man
# Method in brief: as §1
# [39] = target: Man(a1-2)Man(a1-6)[Man(a1-3)]Man(a1-6)[Man(a1-2)Man(a1-2)Man(a1-3)]Man(b1-4)GlcNAc(b1-4)GlcNAc
# Method in brief: as §1
# [40] = target: Man(a1-3)[Man(a1-6)]Man
# Method in brief: as §1
# [41] = target: Man(a1-3)[Man(a1-6)]Man(a1-6)[Man(a1-2)Man(a1-3)]Man(b1-4)GlcNAc(b1-4)GlcNAc
# Method in brief: as §1
# [42] = target: Man(a1-3)[Man(a1-6)]Man(a1-6)[Man(a1-3)]Man
# Method in brief: as §1
# [43] = target: Man(a1-3)[Man(a1-6)]Man(a1-6)[Man(a1-3)]Man(b1-4)GlcNAc(b1-4)GlcNAc
# Method in brief: as §1
# [44] = target: Man(a1-3)[Man(a1-6)]Man(b1-4)GlcNAc(b1-4)GlcNAc
# Method in brief: as §1
# [45] = target: Man(a1-3)[Man(a1-6)]Man(b1-4)GlcNAc(b1-4)[Fuc(a1-6)]GlcNAc
# Method in brief: as §1
# [46] = target: Man(a1-6)Man
# Method in brief: as §1
# [47] = target: Man(b1-4)GlcNAc
# Method in brief: as §1
# [48] = target: MurNAc(b1-4)GlcNAc
# Method in brief: as §1
# [49] = target: Neu5Ac(a2-3)Gal
# Method in brief: as §1
# [50] = target: Neu5Ac(a2-3)Gal(b1-3)GalNAc
# Method in brief: as §1
# [51] = target: Neu5Ac(a2-3)Gal(b1-3)GalNAc(b1-3)Gal(a1-4)Gal(b1-4)Glc
# Method in brief: as §1
# [52] = target: Neu5Ac(a2-3)Gal(b1-3)GalNAc(b1-4)Gal(b1-4)Glc
# Method in brief: as §1
binder,measurement,setting,value
KILRGVCKKIMRTFLRRISKDILTGKK [NK2 (Sus scrofa)],glycan array binding signal (z-score),[1],-0.263
same,glycan array binding signal (z-score),[2],-0.965
same,glycan array binding signal (z-score),[3],0.559
same,glycan array binding signal (z-score),[4],-0.075
same,glycan array binding signal (z-score),[5],-0.331
same,glycan array binding signal (z-score),[6],0.417
same,glycan array binding signal (z-score),[7],1.7
same,glycan array binding signal (z-score),[8],0.144
same,glycan array binding signal (z-score),[9],0.081
same,glycan array binding signal (z-score),[10],-1.05
same,glycan array binding signal (z-score),[11],0.307
same,glycan array binding signal (z-score),[12],-0.366
same,glycan array binding signal (z-score),[13],-0.028
same,glycan array binding signal (z-score),[14],-0.326
same,glycan array binding signal (z-score),[15],0.592
same,glycan array binding signal (z-score),[16],0.043
same,glycan array binding signal (z-score),[17],-0.553
same,glycan array binding signal (z-score),[18],0.06
same,glycan array binding signal (z-score),[19],0.218
same,glycan array binding signal (z-score),[20],-1.1
same,glycan array binding signal (z-score),[21],-0.829
same,glycan array binding signal (z-score),[22],-0.221
same,glycan array binding signal (z-score),[23],0.373
same,glycan array binding signal (z-score),[24],-0.015
same,glycan array binding signal (z-score),[25],0.423
same,glycan array binding signal (z-score),[26],-0.323
same,glycan array binding signal (z-score),[27],0.105
same,glycan array binding signal (z-score),[28],-0.758
same,glycan array binding signal (z-score),[29],-0.406
same,glycan array binding signal (z-score),[30],0.619
same,glycan array binding signal (z-score),[31],-0.819
same,glycan array binding signal (z-score),[32],0.695
same,glycan array binding signal (z-score),[33],-1.35
same,glycan array binding signal (z-score),[34],-1.11
same,glycan array binding signal (z-score),[35],-1.08
same,glycan array binding signal (z-score),[36],0.064
same,glycan array binding signal (z-score),[37],-0.846
same,glycan array binding signal (z-score),[38],-0.174
same,glycan array binding signal (z-score),[39],0.793
same,glycan array binding signal (z-score),[40],0.504
same,glycan array binding signal (z-score),[41],0.661
same,glycan array binding signal (z-score),[42],-0.864
same,glycan array binding signal (z-score),[43],0.793
same,glycan array binding signal (z-score),[44],-0.398
same,glycan array binding signal (z-score),[45],-0.122
same,glycan array binding signal (z-score),[46],0.253
same,glycan array binding signal (z-score),[47],-0.585
same,glycan array binding signal (z-score),[48],-0.219
same,glycan array binding signal (z-score),[49],-0.22
same,glycan array binding signal (z-score),[50],-0.076
same,glycan array binding signal (z-score),[51],-0.526
same,glycan array binding signal (z-score),[52],-0.554

# Retrieved one by one from above:
binder,measurement,setting,value
KILRGVCKKIMRTFLRRISKDILTGKK [NK2 (Sus scrofa)],glycan array binding signal (z-score),[26],-0.323
same,glycan array binding signal (z-score),[10],-1.05
same,glycan array binding signal (z-score),[49],-0.22
